# Measured values from patent publication US20080305522A1 (MITSUKAN GROUP, published 2008).
# No constants are given. Whether binding was seen depends on the method and setting. Some entries that bind do so weakly or less than the wild type.
# B1: curculin B expressed in Escherichia coli and refolded (subunit of homodimer curculin) (protein)
# chain: DNVLLSGQTLHADHSLQAGAYTLTIQNKCNLVKYQNGRQIWASNTDRRGSGCRLTLLSDGNLVIYDHNNNDVWGSACWGDNGKYALVLQKDGRFVIYGPVLWSLGPNGCRRVNG
# Biological target: curculin B expressed in Escherichia coli and refolded (subunit of homodimer curculin) (Curculigo latifolia) (UniProt P19667)
# Assay: SDS-PAGE under reducing and non-reducing conditions, CBB staining, refolded E. coli protein
binder,measurement,value
B1,binding,binds
